Record: PubChem BioAssay AID1259425 (University of Nebraska Medical Center, 2018)
This is an unselected part of about 14,000 reagents tested. No sequences are given here. The record does not give: the time to read-out.

Purpose: 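Find knockdowns that reproduce the gene expression pattern seen when KSR1 is lost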 (primary screen)
System: HCT116 human colon cancer cells
Reagent: siRNA pool against human genes, 50 nM siRNA
Detection: 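After 50 nM siRNA pool, branched-DNA assay measures six marker transcripts per well, minus blank, normalised to the geometric mean of two housekeeping transcripts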
Direction: BNIP3L mRNA: higher = more BNIP3L transcript after knockdown; NDRG1 mRNA: higher = more NDRG1 transcript after knockdown; BNIP3 mRNA: higher = more BNIP3 transcript after knockdown; ALDOC mRNA: higher = more ALDOC transcript after knockdown; ACSL5 mRNA: higher = more ACSL5 transcript after knockdown

| BNIP3L mRNA, set 1 | NDRG1 mRNA, set 1 | BNIP3 mRNA, set 1 | ALDOC mRNA, set 1 | ACSL5 mRNA, set 1 | target gene |
| --- | --- | --- | --- | --- | --- |
| 0.0894 | 0.0567 | 0.342 | 0.00464 | 0.114 | INSM1 (INSM transcriptional repressor 1) |
| 0.124 | 0.401 | 0.397 | 0.0121 | 0.164 | NDUFA13 (NADH:ubiquinone oxidoreductase subunit A13) |
| 0.116 | 0.46 | 0.354 | 0.0148 | 0.125 | USP49 (ubiquitin specific peptidase 49) |
| 0.0809 | 0.0888 | 0.326 | 0.035 | 0.0751 | TMEM39A (transmembrane protein 39A) |
| 0.0356 | 0.274 | 0.253 | 0.0141 | 0.215 | ASXL3 (ASXL transcriptional regulator 3) |
| 0.0782 | 0.131 | 0.216 | 0.00862 | 0.0844 | TRPM2 |
| 0.604 | 0.417 | 0.46 | 0.0283 | 0.187 | PLAAT1 (phospholipase A and acyltransferase 1) |
| 0.22 | 0.414 | 0.357 | 0.0745 | 0.0788 | BBS7 (Bardet-Biedl syndrome 7) |
| 0.121 | 0.192 | 0.366 | 0.0323 | 0.196 | TEP1 (telomerase associated protein 1) |

Taken from above.
For “BNIP3L mRNA, set 1”, PLAAT1 (phospholipase A and acyltransferase 1) has 0.604
Entry of TEP1 (telomerase associated protein 1) in “NDRG1 mRNA, set 1”: 0.192
For “BNIP3 mRNA, set 1”, TRPM2 shows 0.216

Next results follow.
| BNIP3L mRNA, set 1 | NDRG1 mRNA, set 1 | BNIP3 mRNA, set 1 | ALDOC mRNA, set 1 | ACSL5 mRNA, set 1 | target gene |
| --- | --- | --- | --- | --- | --- |
| 0.187 | 0.217 | 0.358 | 0.065 | 0.263 | SNTA1 (syntrophin alpha 1) |
| 0.0949 | 0.229 | 0.436 | 0.0353 | 0.153 | CAMTA1 (calmodulin binding transcription activator 1) |
| 0.145 | 0.105 | 0.276 | 0.0413 | 0.19 | STARD9 (StAR related lipid transfer domain containing 9) |
| 0.121 | 0.275 | 0.146 | 0.0146 | 0.124 | XRCC2 (X-ray repair cross complementing 2) |
| 0.0914 | 0.239 | 0.399 | 0.0303 | 0.227 | PCDHGA1 (protocadherin gamma subfamily A, 1) |
| 0.0897 | 0.291 | 0.266 | 0.0141 | 0.126 | TEX28 (testis expressed 28) |
| 0.23 | 0.0891 | 0.437 | 0.0111 | 0.547 | ETV6 (ETS variant transcription factor 6) |
| 0.094 | 0.0855 | 0.297 | 0.038 | 0.0635 | SPECC1L |
| 0.225 | 0.118 | 0.169 | 0.0353 | 0.183 | PELI2 (pellino E3 ubiquitin protein ligase family member 2) |
| 0.0769 | 0.203 | 0.212 | 0.00378 | 0.22 | ELF5 (E74 like ETS transcription factor 5) |
| 0.167 | 0.273 | 0.317 | 0.0297 | 0.265 | MORC1 (MORC family CW-type zinc finger 1) |
